## Results of single-concentration screens

Chains of the proteins cited; added tags and fusions are not shown.
UniProt I6X8D2, whole entry: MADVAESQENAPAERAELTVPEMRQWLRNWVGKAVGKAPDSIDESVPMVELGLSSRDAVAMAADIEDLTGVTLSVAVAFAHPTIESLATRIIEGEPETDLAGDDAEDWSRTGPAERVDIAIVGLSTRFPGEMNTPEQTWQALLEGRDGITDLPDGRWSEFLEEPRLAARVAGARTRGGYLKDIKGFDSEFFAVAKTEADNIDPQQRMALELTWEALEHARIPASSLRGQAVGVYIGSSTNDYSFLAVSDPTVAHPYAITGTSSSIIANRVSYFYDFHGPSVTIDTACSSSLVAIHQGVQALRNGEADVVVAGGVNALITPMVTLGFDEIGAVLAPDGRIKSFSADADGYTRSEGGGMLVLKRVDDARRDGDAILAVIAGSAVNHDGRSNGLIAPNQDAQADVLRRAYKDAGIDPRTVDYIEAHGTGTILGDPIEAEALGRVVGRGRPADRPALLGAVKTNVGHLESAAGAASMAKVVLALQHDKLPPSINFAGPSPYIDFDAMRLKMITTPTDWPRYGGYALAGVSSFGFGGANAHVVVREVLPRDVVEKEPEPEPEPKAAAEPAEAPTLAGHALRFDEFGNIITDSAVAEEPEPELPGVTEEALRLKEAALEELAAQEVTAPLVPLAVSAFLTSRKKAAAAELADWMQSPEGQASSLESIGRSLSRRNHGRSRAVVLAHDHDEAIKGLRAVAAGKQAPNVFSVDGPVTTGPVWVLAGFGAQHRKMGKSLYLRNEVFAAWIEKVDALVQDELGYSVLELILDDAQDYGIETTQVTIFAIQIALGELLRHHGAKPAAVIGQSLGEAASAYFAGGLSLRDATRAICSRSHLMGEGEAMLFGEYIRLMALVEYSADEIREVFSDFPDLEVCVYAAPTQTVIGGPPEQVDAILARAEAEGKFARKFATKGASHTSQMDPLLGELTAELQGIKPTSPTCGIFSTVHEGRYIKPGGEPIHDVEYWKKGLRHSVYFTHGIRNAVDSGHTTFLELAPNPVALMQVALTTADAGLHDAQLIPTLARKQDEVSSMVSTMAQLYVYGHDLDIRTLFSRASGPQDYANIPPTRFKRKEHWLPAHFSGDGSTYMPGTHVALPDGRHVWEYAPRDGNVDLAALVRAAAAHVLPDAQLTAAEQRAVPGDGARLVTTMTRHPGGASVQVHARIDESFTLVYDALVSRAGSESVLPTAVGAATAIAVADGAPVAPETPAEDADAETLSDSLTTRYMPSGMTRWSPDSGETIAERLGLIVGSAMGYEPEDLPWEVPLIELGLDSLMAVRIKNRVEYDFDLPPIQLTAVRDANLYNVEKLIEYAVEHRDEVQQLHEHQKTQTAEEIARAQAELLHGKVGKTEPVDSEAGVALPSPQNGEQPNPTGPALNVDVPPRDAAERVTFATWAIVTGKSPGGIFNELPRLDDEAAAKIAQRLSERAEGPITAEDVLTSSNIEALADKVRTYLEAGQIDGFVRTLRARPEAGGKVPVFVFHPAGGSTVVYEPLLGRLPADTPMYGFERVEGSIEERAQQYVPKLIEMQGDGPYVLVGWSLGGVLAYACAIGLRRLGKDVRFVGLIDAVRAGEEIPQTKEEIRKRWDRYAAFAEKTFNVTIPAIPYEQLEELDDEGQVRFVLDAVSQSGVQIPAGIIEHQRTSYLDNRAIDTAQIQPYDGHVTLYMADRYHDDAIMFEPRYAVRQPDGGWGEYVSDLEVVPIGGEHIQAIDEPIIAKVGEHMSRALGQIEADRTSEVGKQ

The values are deposited in ChEMBL (CHEMBL3988442, “University of Dundee, Small-Polar-MMV Screening Library” (2021)).

Toxoplasma: 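Assay of Toxoplasma gondii numbers, read through their beta-galactosidase reporter with a colour substrate. Concentration: 10 µM. The record gives no direction; the compounds picked for IC50 retests had high values, so higher reads as fewer parasites. About 67,000 compounds were tested under these conditions; 0.38% (about 260) showed 50% or more at least once.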
Pks13 thioesterase: 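Polyketide synthase Pks13, Mycobacterium tuberculosis (UniProt I6X8D2). Enzyme assay of the thioesterase domain of polyketide synthase 13; the read-out is not stated. Tested at 30 µM. Higher reads as stronger inhibition (inferred from which compounds were picked for retests). Of about 67,000 compounds tested this way, about 300 (0.46%) reached 50% or more in at least one test.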

The filed quantity is “Percent Effect” (%). The controls that fix the scale are not given in the record; negative values are as filed. This is an unselected part of the compounds tested. A dash means the value is not listed here; it may have been measured.

Compound | Toxoplasma | Pks13 thioesterase
COCC(O)CN(C)C(=O)NCc1ccc(S(C)(=O)=O)cc1 (configuration not stated) | 5.02% | 3.814%
COCCN1C[C@H]2CCN(C(C)=O)CC[C@H]2S1(=O)=O | - | -13.54%
Cc1nn(C)c(C)c1C1CCCN1CC(=O)Nc1ccc(Cl)cn1 (configuration not stated) | -11.94% | 1.291%
COCCNC(=O)N1CC(Cc2ccccc2F)C1 | -7.77% | -28.72%
O=C(CCc1cc2n(n1)CCN(Cc1ncc[nH]1)C2)N1CCCC1 | -10.6% | -16.77%
COc1cccc(Cn2c(C3CCNCC3)cc3cccnc32)c1.Cl | 17.74% | -
O=C(c1cccnc1O)N1CCOC(Cc2cccc(C(F)(F)F)c2)C1 (configuration not stated) | 6.197% | 4.562%
CNc1nnc(SCc2nnc(C(C)(C)C)o2)s1 | -4.421% | 1.122%
O=C(CC(SC1CCCCC1)C(=O)O)c1ccc(Br)cc1 (configuration not stated) | -9.676% | 6.665%
CN(C)C(=O)CN1C(=O)CO[C@@H]2CN(c3ccccn3)C[C@H]21 | - | -30.08%
CCc1nc2ccccc2c(=O)n1CC1(O)CCN(C(=O)C(C)C)CC1 | -14.45% | 8.755%
CN(C)[C@@H]1CN(Cc2ccc(O)cc2)C[C@H]1c1cn(C)c2ccccc12.Cl | -0.916% | -
Cc1ncc(C(=O)N2CCOC(C(=O)N3CCCCCC3)C2)c(C)n1 (configuration not stated) | - | 6.578%
Cc1nc(CN2CCCC(Nc3ncnc4ccsc34)C2)no1 (configuration not stated) | -4.442% | -5.463%
NC(=O)NCC(=O)N1CCCC(c2nccn2CC2CCC2)C1 (configuration not stated) | -27.43% | -1.909%
O=C(O)c1c(-c2cccnc2)ncc2c1CCN(CC1CCOC1)C2 (configuration not stated) | - | -10.19%
Cc1cccc(CS(=O)(=O)c2nnc(N3CCOCC3)s2)c1 | -2.93% | -6.366%
COc1ccc(Cl)cc1Nc1nc(N)c(C(C)=O)s1 | -6.447% | -0.2569%
O=C(NC1CCC1)[C@H]1C[C@@H]2CN(C(=O)Nc3ccc(F)cc3)C[C@H]1O2 | - | 5.75%
CCCNC(=O)CCC(=O)Nc1ccc(-n2cncn2)c(F)c1 | -2.823% | -14.26%
CS(=O)(=O)c1cccc(C(N)c2ccc(Cl)cc2)c1 (configuration not stated) | -4.572% | -
CC(C)c1nsc(N2CCS(=O)(=O)CC2)n1 | -13.53% | -2.924%
CC(C)(C)SCC(=O)NCCc1csc(N2CCCC2)n1 | -14.42% | 24.19%
COC(=O)C(c1cc(F)ccc1F)N(C)C(=O)c1cnc(C)cn1 (configuration not stated) | -13.57% | -0.1586%
CCN(CC)Cc1cc(=O)n2c(n1)CN(S(=O)(=O)C1CC1)CCC2.O=C(O)C(F)(F)F | -17.65% | -
Cc1ccc(C(=O)N2CCCN(Cc3cccs3)CC2)n1C | 5.085% | -12.94%
CN(C)c1ccc(C(=O)N2CCN(CC(C)(C)O)CC2)nn1 | -14.56% | -26.76%
Cc1c(C(=O)NCC(C)C)nnn1-c1cccc2c1CCN(C)C2 | 3.369% | -35.42%
CN1CCC(Oc2ccc(NC(=O)c3ccccc3Br)cc2)CC1 | -27.24% | -27.19%
[H][C@@]12CCCO[C@]1([H])[C@H](N(C)Cc1cccnc1)CN2C(=O)c1ccco1 | -17.58% | -
O=C([C@H]1COC[C@H]2CN(C3CCOCC3)C[C@H]21)N1CCCCO1 | - | -4.793%
COC(=O)c1cccn1C1CCN(CCN2C(=O)CCC2=O)CC1 | 9.783% | -14.49%
Cl.c1nc(N2CCOCC2)sc1-c1cncn1CCCN1CCCCC1 | 4.686% | -
[H][C@]12CN(Cc3ccco3)C[C@@]1([H])OCCN(S(=O)(=O)C1CC1)C2 | 24.51% | -
Cn1cc(-c2nnn3c2COC(CNCc2nccs2)C3)cn1 (configuration not stated) | 2.316% | -3.841%
CC(C)C(C)N(C(=O)Cn1nc2n(c1=O)CCCCC2)C1CC1 (configuration not stated) | -8.222% | -13.9%
CCN1CCn2c(C)cnc2C12CCN(C(=O)N(C)C)CC2 | - | -15.03%
FC(F)(F)c1[nH]nc2c1CN(Cc1ccccc1)CC2 | -1.441% | -12.47%
CS(=O)(=O)N1CCC(C(=O)NC(Cc2ccsc2)c2ccccn2)CC1 (configuration not stated) | 3.395% | -31.79%
CC1CCN(C(=O)c2cccc3ncccc23)CC1 | 21.78% | -2.515%
Cc1cc(C2CCCN2Cc2cccc(C(=O)Nc3nccs3)c2)no1 (configuration not stated) | -6.564% | -52.13%
COc1cccc(CC2(C(=O)O)CCN(c3nccs3)CC2)c1 | - | -17.4%
COCc1ccc(CNCc2c(C)nn(C)c2N(C)C)cc1 | 26.36% | -15.05%
[H][C@]12CCN[C@@]1([H])CN(C(=O)CC(F)(F)F)C2 | -18.77% | -
[H][C@]12CN(S(C)(=O)=O)CCN1C[C@H](c1ccccc1)[C@H]2C(=O)OCC | 17.37% | -
Cc1ccc(N2CCCN(C(=O)c3cn(C)c4ccccc34)CC2)nn1 | -6.38% | -5.809%
COc1cccc(OCC2CCCN(C(=O)c3ncc(F)cc3F)C2)c1 (configuration not stated) | -29.17% | 6.736%
O=C(O)C(F)(F)F.[H][C@@]12C[C@@H](c3nc(C)no3)O[C@]1([H])CN(Cc1scnc1C)C2 | -0.5856% | -
CC(NC(=O)NCC(C)(C)O)c1ccc(-c2ccncc2)cc1 (configuration not stated) | 1.125% | 1.008%
COc1ccc(CCNC2CCCN(Cc3noc(C)n3)C2)cc1 (configuration not stated) | -5.112% | -2%
CC(C)c1ocnc1C(=O)N1CCCC(c2ccn[nH]2)C1 (configuration not stated) | 11.98% | -31.68%
CN(C)CC1(O)CCCN(C(=O)CCn2cc(Cl)cn2)C1 (configuration not stated) | 4.893% | 14.31%
COCc1nn(C(C)C)c2c1CCN(Cc1nccs1)C2.O=C(O)C(F)(F)F | 11.39% | -
O=C(O)C(F)(F)F.O=C(O)C(F)(F)F.[H][C@]12C[C@@H](C(=O)Nc3cccnc3)CO[C@@]1([H])CCN(c1ncc(F)cn1)C2 | 4.38% | -
Cc1ccc2c(c1C)OCC2NCc1ccc(C#N)cc1 (configuration not stated) | -10.14% | -2.97%
CCc1nnc2n1CC(CNc1cnc3ccccc3n1)CC2 (configuration not stated) | -12.28% | -2.762%
CCC(C)N(Cc1cccnc1)C(=O)c1ccc(NS(=O)(=O)CC)cc1 (configuration not stated) | -7.228% | -16.71%
CN(C)C(=O)c1nnn(-c2ccc(Br)cc2)n1 | -9.102% | -
CCOc1ccccc1OCC(=O)NCc1ncc(C)c(OC)c1C | -0.7941% | -15.46%
C1CC(c2nnc(CN3CCCC3c3noc(C4CC4)n3)o2)C1 (configuration not stated) | 17.17% | -10.01%
O=C1COC2(CCN(Cc3cccnc3)CC2)CN1 | - | 5.63%
c1ccc(-c2nc(CN3CCCC3Cn3cncn3)co2)cc1 (configuration not stated) | -16.4% | -9.515%
[H][C@@]12CN(Cc3cccnc3)C[C@]1([H])OCC(=O)N2 | -0.6964% | -
Cc1cnn(C2CCCN(C(=O)c3ccc(OCC4CC4)nc3)C2)c1 (configuration not stated) | -1.33% | -11.8%

Once more, the final 5:

Compound,Toxoplasma,Pks13 thioesterase
C1CC(c2nnc(CN3CCCC3c3noc(C4CC4)n3)o2)C1 (configuration not stated),17.17%,-10.01%
O=C1COC2(CCN(Cc3cccnc3)CC2)CN1,-,5.63%
c1ccc(-c2nc(CN3CCCC3Cn3cncn3)co2)cc1 (configuration not stated),-16.4%,-9.515%
[H][C@@]12CN(Cc3cccnc3)C[C@]1([H])OCC(=O)N2,-0.6964%,-
Cc1cnn(C2CCCN(C(=O)c3ccc(OCC4CC4)nc3)C2)c1 (configuration not stated),-1.33%,-11.8%